This note sets out measurements from patent EP4793274A1, “SALT AND CRYSTAL FORM OF KIF18A INHIBITOR COMPOUND, PREPARATION METHOD THEREFOR AND USE THEREOF” (Hubei Bio-Pharmaceutical Industrial Technological Institute …, priority 2023, dated 2025).

This data set is described as follows: Solubility at room temperature in water, SGF and FaSSIF (HPLC concentration, pH of filtrate, XRPD of residual solid). The following applies: listed as Crystal form A of maleate.

Counter-ions that a name gives are not always drawn. Further values from the same series stand in other lists.

The compound `Cc1cc(-c2cnn(-c3ccc(NS(=O)(=O)CCO)cc3N3CCC4(CC3)CC4)c2)nc(N2CCC(F)(F)CC2)n1` [crystal form A of the maleate] displayed a pH (H2O, 2 h) of 6.5; a pH (H2O, 24 h) of 2.7; a pH (SGF, 2 h) of 1.9; a pH (SGF, 24 h) of 1.9.
